# Tested on: Tubulin (several forms)
# Experiment: Affinity capture on monomeric avidin, ALL cell fractions, MS peptide hits
# Type: binding
compound,measurement,value
N#Cc1ccc2c(c1)CN(S(=O)(=O)CCCNC(=O)CCCCCNC(=O)CCCC[C@H]1SC[C@H]3NC(=O)N[C@H]31)CCN2Cc1cnc[nH]1 [BMS-236724],Peptide Hits Exp 1,10
same,Peptide Hits Exp 2,1

# Source: patent publication US20100233172A1, “METHODS OF INHIBITING QUIESCENT TUMOR PROLIFERATION” (Bristol-Myers Squibb Company, priority 2008, published 2010)
